The supplement of paper PMC10849652
Some of the results follow.

By UniProt entry, the sequences of proteins in these tests, tags left out. Where a name states a change or a piece, a line headed by the entry shows the natural chain unless it says otherwise.
UniProt Q92562: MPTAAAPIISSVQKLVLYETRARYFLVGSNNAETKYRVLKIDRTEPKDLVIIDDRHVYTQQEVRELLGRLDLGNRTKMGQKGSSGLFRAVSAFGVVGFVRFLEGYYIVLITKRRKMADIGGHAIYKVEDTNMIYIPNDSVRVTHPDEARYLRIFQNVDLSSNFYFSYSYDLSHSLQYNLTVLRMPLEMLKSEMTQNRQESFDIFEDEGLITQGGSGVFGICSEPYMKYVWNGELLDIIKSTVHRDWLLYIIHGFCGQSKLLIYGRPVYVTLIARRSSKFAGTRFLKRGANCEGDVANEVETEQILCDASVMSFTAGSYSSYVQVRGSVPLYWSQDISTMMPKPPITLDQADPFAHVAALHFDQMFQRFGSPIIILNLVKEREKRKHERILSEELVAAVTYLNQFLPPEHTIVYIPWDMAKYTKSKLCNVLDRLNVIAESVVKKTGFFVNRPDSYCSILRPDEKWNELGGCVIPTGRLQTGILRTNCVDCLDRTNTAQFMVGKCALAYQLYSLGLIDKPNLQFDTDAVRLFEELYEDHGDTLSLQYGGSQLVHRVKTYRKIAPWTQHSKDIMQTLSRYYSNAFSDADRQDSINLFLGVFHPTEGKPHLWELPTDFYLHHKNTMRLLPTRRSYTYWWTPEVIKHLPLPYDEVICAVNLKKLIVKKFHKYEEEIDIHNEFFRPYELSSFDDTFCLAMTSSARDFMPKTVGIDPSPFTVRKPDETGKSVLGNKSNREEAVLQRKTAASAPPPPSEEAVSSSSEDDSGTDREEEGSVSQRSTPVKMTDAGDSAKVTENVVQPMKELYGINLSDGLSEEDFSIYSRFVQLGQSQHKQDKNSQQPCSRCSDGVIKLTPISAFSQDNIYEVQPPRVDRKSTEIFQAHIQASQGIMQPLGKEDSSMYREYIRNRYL
UniProt Q9H9S5: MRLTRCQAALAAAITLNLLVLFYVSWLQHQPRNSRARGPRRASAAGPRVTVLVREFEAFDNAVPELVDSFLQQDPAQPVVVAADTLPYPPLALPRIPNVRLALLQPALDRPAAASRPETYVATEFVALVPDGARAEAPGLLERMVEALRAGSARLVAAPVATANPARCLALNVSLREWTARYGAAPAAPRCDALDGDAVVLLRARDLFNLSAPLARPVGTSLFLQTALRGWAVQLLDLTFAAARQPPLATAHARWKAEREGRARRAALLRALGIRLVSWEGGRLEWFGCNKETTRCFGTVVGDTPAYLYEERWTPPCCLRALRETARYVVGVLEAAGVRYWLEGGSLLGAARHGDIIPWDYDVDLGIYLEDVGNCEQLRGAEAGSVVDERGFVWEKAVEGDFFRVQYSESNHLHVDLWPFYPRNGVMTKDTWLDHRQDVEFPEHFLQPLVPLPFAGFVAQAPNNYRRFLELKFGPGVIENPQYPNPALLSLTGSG
UniProt P17948, whole entry, looked up: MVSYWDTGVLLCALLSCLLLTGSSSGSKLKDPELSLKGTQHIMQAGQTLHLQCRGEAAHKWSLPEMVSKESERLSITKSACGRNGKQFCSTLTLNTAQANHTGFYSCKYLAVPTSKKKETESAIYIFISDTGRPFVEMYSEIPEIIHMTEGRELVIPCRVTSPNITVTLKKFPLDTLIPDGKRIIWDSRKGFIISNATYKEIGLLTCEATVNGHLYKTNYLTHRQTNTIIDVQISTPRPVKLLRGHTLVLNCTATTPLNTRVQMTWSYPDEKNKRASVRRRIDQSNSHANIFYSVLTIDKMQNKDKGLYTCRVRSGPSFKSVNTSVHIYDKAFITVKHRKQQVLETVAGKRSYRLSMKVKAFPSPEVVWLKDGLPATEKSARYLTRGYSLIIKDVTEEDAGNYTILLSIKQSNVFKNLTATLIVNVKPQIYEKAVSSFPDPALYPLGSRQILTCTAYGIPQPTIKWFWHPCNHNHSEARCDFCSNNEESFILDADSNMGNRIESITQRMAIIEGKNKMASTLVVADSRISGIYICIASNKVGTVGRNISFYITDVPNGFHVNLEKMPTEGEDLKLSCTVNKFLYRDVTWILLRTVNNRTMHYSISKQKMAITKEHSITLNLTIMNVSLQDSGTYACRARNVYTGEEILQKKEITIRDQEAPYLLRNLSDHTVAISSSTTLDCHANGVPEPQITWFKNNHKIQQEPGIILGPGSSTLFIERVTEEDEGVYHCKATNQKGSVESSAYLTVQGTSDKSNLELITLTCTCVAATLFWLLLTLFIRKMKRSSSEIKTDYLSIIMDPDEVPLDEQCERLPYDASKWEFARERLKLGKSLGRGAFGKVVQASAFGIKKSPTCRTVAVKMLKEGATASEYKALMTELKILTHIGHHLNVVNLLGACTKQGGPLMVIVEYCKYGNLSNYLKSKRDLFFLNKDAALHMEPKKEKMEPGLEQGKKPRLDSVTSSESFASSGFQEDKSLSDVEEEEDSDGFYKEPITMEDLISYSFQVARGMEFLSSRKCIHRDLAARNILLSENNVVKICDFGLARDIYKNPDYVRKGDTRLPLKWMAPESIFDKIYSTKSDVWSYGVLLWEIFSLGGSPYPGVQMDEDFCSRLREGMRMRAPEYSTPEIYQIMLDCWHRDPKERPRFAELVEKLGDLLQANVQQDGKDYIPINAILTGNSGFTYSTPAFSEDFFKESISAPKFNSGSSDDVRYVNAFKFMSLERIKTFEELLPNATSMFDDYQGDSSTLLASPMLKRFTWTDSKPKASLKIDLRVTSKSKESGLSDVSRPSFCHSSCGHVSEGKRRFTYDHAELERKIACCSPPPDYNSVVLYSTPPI
UniProt P0C5J1: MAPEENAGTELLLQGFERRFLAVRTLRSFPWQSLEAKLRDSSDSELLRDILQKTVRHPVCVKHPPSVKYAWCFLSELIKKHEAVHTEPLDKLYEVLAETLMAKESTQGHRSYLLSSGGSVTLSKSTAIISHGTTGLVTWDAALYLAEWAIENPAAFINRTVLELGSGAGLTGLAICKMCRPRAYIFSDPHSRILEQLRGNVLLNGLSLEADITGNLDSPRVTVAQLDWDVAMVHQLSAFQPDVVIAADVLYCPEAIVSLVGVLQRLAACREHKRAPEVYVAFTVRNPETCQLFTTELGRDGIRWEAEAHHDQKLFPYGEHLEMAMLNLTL
UniProt Q8TAV0: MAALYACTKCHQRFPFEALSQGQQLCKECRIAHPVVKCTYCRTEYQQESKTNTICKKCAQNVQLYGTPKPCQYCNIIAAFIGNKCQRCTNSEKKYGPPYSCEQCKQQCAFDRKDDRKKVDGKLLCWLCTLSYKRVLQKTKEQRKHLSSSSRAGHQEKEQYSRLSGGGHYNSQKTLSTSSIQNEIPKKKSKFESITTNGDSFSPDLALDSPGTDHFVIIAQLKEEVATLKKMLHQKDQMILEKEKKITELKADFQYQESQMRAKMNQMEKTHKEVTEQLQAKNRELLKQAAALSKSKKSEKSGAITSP
UniProt O60258: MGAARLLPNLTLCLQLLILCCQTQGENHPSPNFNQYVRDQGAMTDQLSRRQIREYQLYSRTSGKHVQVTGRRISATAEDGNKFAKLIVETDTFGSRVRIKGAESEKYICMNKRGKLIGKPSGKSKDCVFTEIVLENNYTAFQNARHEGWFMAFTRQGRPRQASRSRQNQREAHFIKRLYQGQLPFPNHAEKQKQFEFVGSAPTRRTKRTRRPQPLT
UniProt Q8N0W7: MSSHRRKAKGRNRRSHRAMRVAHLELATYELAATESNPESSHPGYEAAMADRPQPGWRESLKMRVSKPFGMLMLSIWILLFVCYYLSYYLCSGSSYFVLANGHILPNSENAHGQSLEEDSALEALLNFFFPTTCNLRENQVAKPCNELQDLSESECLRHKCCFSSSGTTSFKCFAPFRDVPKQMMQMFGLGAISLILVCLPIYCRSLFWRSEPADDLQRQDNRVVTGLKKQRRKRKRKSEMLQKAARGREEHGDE
UniProt P02679: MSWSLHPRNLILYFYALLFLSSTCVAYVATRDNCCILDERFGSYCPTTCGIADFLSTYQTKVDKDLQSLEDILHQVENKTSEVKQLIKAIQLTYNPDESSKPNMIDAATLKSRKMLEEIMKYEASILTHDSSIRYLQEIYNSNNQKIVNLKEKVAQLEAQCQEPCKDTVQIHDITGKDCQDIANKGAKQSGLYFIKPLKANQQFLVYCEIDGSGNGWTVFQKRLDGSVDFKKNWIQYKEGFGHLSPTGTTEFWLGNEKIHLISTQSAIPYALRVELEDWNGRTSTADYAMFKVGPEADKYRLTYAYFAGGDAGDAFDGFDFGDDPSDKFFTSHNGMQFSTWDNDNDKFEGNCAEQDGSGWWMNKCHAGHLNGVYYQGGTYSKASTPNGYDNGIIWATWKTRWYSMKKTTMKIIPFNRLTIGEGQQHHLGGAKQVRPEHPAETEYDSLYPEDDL
UniProt Q5XKK7: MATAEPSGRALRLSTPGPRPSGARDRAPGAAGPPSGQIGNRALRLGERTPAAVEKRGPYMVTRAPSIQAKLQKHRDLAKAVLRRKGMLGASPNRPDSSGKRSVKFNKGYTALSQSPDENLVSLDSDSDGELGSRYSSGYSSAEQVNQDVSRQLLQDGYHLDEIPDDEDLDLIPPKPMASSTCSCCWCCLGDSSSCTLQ
UniProt Q7L8L6: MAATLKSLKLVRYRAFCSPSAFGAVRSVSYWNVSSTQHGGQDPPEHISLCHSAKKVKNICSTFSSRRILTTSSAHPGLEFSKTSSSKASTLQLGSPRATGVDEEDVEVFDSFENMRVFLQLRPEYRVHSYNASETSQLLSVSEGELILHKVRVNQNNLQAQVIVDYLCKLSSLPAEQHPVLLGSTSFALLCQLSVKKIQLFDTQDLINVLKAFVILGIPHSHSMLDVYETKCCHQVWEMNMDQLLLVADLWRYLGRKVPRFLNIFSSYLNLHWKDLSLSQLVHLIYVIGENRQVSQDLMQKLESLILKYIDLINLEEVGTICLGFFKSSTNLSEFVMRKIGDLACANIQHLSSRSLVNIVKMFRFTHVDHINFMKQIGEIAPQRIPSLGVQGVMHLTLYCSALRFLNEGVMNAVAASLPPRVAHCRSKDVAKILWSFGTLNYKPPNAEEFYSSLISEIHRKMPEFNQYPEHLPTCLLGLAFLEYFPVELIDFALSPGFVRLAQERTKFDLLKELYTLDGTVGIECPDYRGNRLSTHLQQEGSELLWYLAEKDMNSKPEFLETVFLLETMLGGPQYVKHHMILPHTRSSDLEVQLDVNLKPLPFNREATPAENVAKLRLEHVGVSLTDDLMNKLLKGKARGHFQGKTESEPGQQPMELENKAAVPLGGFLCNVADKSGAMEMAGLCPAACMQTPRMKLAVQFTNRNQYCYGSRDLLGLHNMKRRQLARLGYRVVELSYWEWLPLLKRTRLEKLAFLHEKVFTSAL
UniProt Q17RN3: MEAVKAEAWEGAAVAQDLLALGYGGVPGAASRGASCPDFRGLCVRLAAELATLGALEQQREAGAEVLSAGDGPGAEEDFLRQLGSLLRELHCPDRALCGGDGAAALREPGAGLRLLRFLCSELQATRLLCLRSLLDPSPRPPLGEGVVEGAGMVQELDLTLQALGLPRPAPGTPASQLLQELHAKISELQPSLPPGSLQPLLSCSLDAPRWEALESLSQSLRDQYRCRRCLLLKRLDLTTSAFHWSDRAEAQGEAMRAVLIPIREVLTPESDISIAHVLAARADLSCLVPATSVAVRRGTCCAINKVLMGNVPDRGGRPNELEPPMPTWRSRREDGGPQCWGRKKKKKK
UniProt Q8WU58: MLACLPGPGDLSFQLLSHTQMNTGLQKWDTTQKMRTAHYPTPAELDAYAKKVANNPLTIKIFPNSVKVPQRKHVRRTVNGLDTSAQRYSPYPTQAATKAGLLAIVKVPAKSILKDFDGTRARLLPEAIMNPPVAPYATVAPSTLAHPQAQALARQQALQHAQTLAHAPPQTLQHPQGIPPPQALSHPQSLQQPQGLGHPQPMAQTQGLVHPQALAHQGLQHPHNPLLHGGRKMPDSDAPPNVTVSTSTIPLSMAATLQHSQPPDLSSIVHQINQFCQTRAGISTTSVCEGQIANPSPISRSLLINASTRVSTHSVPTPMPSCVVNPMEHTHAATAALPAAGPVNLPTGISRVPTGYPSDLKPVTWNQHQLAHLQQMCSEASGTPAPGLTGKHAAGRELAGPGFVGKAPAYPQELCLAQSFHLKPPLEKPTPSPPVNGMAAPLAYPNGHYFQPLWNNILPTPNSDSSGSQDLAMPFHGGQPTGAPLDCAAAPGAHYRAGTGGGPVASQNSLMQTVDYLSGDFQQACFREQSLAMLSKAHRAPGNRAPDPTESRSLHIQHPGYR
UniProt Q9NW38: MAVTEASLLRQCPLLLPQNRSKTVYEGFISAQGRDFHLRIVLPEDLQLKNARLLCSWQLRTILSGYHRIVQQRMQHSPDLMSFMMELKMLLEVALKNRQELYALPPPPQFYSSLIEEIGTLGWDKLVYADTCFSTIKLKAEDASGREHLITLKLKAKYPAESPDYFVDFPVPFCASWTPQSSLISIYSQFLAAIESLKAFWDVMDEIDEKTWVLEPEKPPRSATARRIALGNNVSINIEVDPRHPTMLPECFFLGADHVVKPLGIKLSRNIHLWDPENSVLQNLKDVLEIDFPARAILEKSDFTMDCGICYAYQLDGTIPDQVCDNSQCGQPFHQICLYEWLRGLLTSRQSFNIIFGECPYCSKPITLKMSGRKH

Experiments:
Assay in all cases: log2 fold change, soluble protein after heating vs DMSO (PISA); higher = thermal stabilisation; K562 cells, 10 uM, 30 min; active = over 0.2 and 3.5 SD of the protein, either way, in both replicates (recomputed)
filanesib = compound: CON(C)C(=O)N1N=C(c2cc(F)ccc2F)S[C@@]1(CCCN)c1ccccc1 [filanesib]
Outline: (§1)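 K562 cells at 2×10^6 cells/mL were given 10 μM compound for 30 min. Aliquots then went through 3 min of heating across 48°C-58°C, were pooled, and were extracted in PBS with 0.5% NP-40 at 4°C, and the supernatant after 21,000xg for 90 min was quantified by TMTpro 16plex LC-MS/MS with channel sums equalised. Thermal stability relative to control samples, from duplicates, is given as log2 fold change.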

zotarolimus = compound: CO[C@H]1C[C@@H]2CC[C@@H](C)[C@@](O)(O2)C(=O)C(=O)N2CCCC[C@H]2C(=O)O[C@H]([C@H](C)C[C@@H]2CC[C@H](n3cnnn3)[C@H](OC)C2)CC(=O)[C@H](C)/C=C(\C)[C@@H](O)[C@@H](OC)C(=O)[C@H](C)C[C@H](C)/C=C/C=C/C=C/1C [zotarolimus]
Outline: as §1

[1] = compound: COc1cc2nc(-c3cc(F)ccc3O)nc(N[C@@H]3CNC[C@H]3C(C)(C)O)c2cc1OC
Outline: as §1

gefitinib = compound: COc1cc2ncnc(Nc3ccc(F)c(Cl)c3)c2cc1OCCCN1CCOCC1 [gefitinib]
Outline: as §1

lapatinib = compound: CS(=O)(=O)CCNCc1ccc(-c2ccc3ncnc(Nc4ccc(OCc5cccc(F)c5)c(Cl)c4)c3c2)o1 [lapatinib]
Outline: as §1

pictilisib = compound: CS(=O)(=O)N1CCN(Cc2cc3nc(-c4cccc5[nH]ncc45)nc(N4CCOCC4)c3s2)CC1 [pictilisib]
Outline: as §1

idasanutlin = compound: COc1cc(C(=O)O)ccc1NC(=O)[C@@H]1N[C@@H](CC(C)(C)C)[C@](C#N)(c2ccc(Cl)cc2F)[C@H]1c1cccc(Cl)c1F [idasanutlin]
Outline: as §1

alisertib = compound: COc1cc(Nc2ncc3c(n2)-c2ccc(Cl)cc2C(c2c(F)cccc2OC)=NC3)ccc1C(=O)O [alisertib]
Outline: as §1

[2] = compound: COc1cccc2cc(-c3nc([C@H]4CC[C@H](C(=O)O)CC4)n4ncnc(N)c34)[nH]c12
Outline: as §1

[3] = compound: COC1=CC=C(C=C1)CN2C=CC3=C2C=C(C=C3)C(=O)NO
Outline: as §1

Measured: log2 fold change

FAM53C (UniProt Q9NYF3)
inactive: filanesib 0.023 | zotarolimus -0.29 | [1] -0.174 | gefitinib -0.003 | lapatinib 0.158 | pictilisib 0.011

FHL1 isoform 4 (UniProt Q13642)
inactive: filanesib 0.012 | zotarolimus -0.241 | idasanutlin 0.081 | [1] 0.078 | gefitinib -0.301 | lapatinib 0.165

FIG4 (UniProt Q92562)
inactive: [1] -0.016 | lapatinib -0.074

FKRP (UniProt Q9H9S5)
inactive: filanesib -0.066 | idasanutlin -0.076 | alisertib 0.179 | [1] 0.014 | gefitinib -0.023 | [2] -0.029 | lapatinib -0.016 | pictilisib 0.198

FBXL8 (UniProt Q96CD0)
inactive: filanesib 0.024 | zotarolimus -0.149

FITM2 (UniProt Q8N6M3)
inactive: alisertib 0.045 | gefitinib 0.006 | [2] -0.124

FLT1 (UniProt P17948)
inactive: [1] 0.352 | lapatinib -0.246

FAT2 (UniProt Q9NYQ8)
inactive: [3] 0.247 | zotarolimus 0.104 | alisertib 0.208 | [1] 0.031 | [2] -0.024 | lapatinib -0.089 | pictilisib -0.497

FAM86B2 (UniProt P0C5J1)
inactive: filanesib 0.004

FAM83A (UniProt Q86UY5)
inactive: filanesib -0.018 | idasanutlin 0.066 | alisertib 0.174 | [1] 0.026 | gefitinib 0.028 | [2] -0.084 | lapatinib -0.054 | pictilisib -0.293

FARP2 (UniProt O94887)
inactive: zotarolimus -0.09 | idasanutlin -0.322 | [1] 0.237 | lapatinib -0.115

FAM76A isoform 3 (UniProt Q8TAV0)
inactive: filanesib -0.029 | idasanutlin 0.047 | [1] 0.066 | lapatinib -0.015 | pictilisib 0.084

FER (UniProt P16591)
inactive: filanesib 0.223 | idasanutlin 0.911 | pictilisib 0.056

FLII isoform 2 (UniProt Q13045)
inactive: filanesib -0.167 | zotarolimus 0.313 | idasanutlin -0.065 | [1] 0.028 | lapatinib 0.036

FBXO44 (UniProt Q9H4M3)
inactive: filanesib -0.014 | zotarolimus 0.028 | gefitinib 0.07

FGF17 (UniProt O60258)
inactive: pictilisib -0.393

FKBP10 (UniProt Q96AY3)
inactive: filanesib 0.075 | pictilisib 0.046

FMR1NB (UniProt Q8N0W7)
inactive: idasanutlin 0.039

FNBP1 (UniProt Q96RU3)
inactive: idasanutlin 0.054

FGG (UniProt P02679)
inactive: [1] -0.068 | lapatinib -0.001 | pictilisib -0.367

FBRSL1 (UniProt Q9HCM7)
inactive: idasanutlin -0.21 | gefitinib 0.024

FNIP1 (UniProt Q8TF40)
inactive: zotarolimus 0.201 | alisertib -0.087 | [1] -0.109 | [2] 0.053 | lapatinib 0.059 | pictilisib 0.009

FGFR1OP2 isoform 2 (UniProt Q9NVK5)
inactive: zotarolimus 0.142 | [1] -0.098 | lapatinib 0.19

FBXL4 (UniProt Q9UKA2)
inactive: filanesib -0.165 | alisertib 0.163 | [2] -0.036 | pictilisib -0.122

FKBP14 (UniProt Q9NWM8)
inactive: filanesib 0.038 | zotarolimus -0.019 | idasanutlin 0.007 | alisertib -0.021 | [1] -0.045 | gefitinib 0.046 | [2] 0.025 | lapatinib -0.025 | pictilisib 0.031

FAXDC2 (UniProt Q96IV6)
inactive: [3] 0.169 | gefitinib -0.024

FAM219B (UniProt Q5XKK7)
inactive: filanesib -0.3 | alisertib -0.033 | [1] -0.038 | [2] 0.012 | lapatinib 0.034 | pictilisib -0.024

FAT4 (UniProt Q6V0I7)
inactive: filanesib 0.065 | idasanutlin 0.036 | alisertib 0.13 | gefitinib 0.071 | [2] -0.007 | pictilisib 0.115

FASTKD5 (UniProt Q7L8L6)
inactive: filanesib -0.323 | zotarolimus -0.316 | idasanutlin -0.074 | [1] 0.319 | lapatinib -0.288 | pictilisib 0.073

Fetched one by one from the entries so far, 2 records:
FGFR1OP2 isoform 2 (UniProt Q9NVK5)
inactive: zotarolimus 0.142 | [1] -0.098 | lapatinib 0.19

FASTKD5 (UniProt Q7L8L6)
inactive: filanesib -0.323 | zotarolimus -0.316 | idasanutlin -0.074 | [1] 0.319 | lapatinib -0.288 | pictilisib 0.073

Following part.

FAM98C (UniProt Q17RN3)
inactive: zotarolimus -0.027 | idasanutlin -0.016 | alisertib 0.101 | [2] 0.371 | pictilisib 0.063

FAM222B (UniProt Q8WU58)
inactive: idasanutlin 0.077 | alisertib -0.04 | [1] -0.067 | [2] 0.111 | lapatinib -0.044

FANCL isoform 2 (UniProt Q9NW38)
inactive: zotarolimus -0.093 | idasanutlin -0.363

FMNL1 isoform 3 (UniProt O95466)
inactive: filanesib 0.433 | idasanutlin 0.058
